The values below come from article doi:10.1101/2022.10.22.513346 (bioRxiv, 2022).

These are yes or no findings as the source states them, for the method shown. Binding seen in cells or lysates may run through a third protein. Some binding calls cover weakened binding; strength is not graded here. Tags and fused reporters may be left off the sequences shown.

What all share (test): split reporter
Assay [1] deals with T1, C-YFP-AGO1^K185E/K190E (Arabidopsis thaliana) (UniProt O04379).
T1 sequence: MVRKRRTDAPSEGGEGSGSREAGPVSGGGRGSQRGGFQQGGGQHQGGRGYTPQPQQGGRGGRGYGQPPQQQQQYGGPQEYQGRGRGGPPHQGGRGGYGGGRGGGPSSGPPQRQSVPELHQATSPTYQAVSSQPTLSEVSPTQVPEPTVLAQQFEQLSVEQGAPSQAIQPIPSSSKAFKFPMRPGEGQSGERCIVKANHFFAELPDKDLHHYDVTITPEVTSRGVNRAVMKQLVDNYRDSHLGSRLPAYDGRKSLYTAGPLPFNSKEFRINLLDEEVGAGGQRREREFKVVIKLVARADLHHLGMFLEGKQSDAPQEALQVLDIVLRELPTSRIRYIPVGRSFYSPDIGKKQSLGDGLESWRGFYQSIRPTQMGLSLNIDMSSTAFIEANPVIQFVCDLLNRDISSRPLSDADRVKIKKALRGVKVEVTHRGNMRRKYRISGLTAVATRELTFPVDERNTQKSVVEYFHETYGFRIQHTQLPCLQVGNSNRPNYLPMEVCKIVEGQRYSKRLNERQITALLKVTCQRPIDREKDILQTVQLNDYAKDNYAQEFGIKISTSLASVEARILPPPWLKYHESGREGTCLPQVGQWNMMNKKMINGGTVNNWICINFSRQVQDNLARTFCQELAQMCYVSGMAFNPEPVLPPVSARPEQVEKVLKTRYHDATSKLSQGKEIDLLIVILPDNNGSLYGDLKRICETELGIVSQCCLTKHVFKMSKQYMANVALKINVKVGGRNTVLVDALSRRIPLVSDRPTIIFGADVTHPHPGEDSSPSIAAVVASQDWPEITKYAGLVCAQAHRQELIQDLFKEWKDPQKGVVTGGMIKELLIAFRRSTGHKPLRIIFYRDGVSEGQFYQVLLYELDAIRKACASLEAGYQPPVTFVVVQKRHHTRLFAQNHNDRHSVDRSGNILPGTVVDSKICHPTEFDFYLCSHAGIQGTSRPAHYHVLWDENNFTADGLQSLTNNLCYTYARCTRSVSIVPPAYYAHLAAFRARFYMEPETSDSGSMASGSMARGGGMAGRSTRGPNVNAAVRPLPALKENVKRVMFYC

In assay [2] the target is T2, C-YFP-AGO1^WT (Arabidopsis thaliana) (UniProt O04379).
T2 sequence: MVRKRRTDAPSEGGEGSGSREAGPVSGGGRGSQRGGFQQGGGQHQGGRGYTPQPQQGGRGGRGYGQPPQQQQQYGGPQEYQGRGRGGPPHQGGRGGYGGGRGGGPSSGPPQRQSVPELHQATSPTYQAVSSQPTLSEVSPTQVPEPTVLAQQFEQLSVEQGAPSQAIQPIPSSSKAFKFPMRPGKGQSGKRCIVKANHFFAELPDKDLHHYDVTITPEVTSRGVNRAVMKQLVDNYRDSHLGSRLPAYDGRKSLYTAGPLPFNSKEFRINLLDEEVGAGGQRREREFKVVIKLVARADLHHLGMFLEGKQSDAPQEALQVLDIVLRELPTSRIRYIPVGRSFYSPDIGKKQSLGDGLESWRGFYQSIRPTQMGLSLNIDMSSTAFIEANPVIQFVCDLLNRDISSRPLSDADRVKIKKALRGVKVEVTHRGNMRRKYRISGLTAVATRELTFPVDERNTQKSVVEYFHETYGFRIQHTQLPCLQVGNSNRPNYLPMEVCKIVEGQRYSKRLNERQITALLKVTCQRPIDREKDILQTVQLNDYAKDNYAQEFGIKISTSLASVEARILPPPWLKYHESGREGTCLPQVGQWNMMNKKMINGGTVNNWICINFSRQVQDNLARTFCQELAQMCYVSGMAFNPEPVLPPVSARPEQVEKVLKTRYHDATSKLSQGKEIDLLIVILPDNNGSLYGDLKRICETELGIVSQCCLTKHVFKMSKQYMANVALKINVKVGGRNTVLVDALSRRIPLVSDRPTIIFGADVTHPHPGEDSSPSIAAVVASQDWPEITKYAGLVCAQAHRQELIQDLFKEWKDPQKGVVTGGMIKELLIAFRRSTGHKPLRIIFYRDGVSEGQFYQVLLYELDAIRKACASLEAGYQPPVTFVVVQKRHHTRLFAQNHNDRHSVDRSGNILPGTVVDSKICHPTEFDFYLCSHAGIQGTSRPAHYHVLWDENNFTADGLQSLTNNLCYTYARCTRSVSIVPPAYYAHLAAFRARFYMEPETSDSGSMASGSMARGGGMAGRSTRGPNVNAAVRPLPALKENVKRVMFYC

In assay [3] the target is T3, C-YFP-AGO1^Y691E (Arabidopsis thaliana) (UniProt O04379).
T3 sequence: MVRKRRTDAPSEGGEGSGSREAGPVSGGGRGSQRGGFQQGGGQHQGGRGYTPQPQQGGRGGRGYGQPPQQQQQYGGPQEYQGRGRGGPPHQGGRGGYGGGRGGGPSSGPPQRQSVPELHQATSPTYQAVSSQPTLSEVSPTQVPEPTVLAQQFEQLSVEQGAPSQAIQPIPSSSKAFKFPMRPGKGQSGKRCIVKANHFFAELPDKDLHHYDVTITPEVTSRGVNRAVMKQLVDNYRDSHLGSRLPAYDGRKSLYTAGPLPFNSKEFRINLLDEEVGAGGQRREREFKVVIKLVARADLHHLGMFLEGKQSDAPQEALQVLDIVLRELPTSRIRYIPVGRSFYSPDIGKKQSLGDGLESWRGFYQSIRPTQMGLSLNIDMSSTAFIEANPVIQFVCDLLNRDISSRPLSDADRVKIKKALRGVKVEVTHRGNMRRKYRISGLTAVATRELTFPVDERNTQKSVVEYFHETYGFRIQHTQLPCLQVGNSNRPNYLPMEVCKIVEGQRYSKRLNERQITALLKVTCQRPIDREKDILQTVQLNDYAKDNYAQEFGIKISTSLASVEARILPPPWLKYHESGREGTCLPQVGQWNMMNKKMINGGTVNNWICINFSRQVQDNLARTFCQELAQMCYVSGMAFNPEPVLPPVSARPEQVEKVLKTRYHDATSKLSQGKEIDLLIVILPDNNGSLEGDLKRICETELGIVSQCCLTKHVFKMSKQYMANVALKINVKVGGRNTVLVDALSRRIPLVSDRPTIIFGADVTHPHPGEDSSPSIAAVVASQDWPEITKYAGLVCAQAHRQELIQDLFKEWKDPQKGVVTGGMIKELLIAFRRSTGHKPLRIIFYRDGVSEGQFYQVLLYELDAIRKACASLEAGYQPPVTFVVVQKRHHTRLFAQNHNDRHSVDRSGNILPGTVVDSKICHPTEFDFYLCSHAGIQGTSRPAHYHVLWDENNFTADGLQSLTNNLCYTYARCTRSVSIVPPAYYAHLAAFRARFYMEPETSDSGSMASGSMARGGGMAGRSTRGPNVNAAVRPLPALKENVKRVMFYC

Assay [4] addresses T4, C-YFP-AGO1^Y691E/K185E/K190E (Arabidopsis thaliana) (UniProt O04379).
T4 sequence: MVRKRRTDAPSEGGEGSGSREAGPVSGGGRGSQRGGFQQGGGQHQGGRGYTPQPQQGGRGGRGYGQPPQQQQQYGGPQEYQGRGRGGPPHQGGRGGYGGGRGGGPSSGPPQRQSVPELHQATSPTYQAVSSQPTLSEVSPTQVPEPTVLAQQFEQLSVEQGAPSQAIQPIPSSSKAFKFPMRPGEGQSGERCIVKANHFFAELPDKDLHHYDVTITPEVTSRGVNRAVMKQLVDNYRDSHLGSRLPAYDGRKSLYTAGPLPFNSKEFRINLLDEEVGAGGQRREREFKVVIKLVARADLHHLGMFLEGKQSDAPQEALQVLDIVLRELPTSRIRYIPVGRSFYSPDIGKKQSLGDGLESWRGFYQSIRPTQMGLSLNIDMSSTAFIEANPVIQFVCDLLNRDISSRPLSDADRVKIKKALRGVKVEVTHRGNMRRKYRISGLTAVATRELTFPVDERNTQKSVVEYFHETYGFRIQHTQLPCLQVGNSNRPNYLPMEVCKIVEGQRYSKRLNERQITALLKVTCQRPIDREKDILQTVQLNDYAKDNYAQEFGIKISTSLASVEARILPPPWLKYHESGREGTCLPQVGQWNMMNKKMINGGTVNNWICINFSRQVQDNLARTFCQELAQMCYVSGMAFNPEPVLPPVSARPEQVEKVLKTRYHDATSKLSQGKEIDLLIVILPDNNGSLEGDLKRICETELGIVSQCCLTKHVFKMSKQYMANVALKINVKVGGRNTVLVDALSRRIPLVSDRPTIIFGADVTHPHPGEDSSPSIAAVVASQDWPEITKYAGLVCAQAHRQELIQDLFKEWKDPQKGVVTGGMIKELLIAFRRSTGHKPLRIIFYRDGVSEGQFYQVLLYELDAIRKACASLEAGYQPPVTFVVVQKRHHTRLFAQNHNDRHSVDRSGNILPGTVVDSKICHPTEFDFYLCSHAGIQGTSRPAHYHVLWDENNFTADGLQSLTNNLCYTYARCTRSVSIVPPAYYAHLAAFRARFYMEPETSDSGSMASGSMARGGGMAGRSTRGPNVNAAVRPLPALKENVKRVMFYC

B1: N-YFP-ATI1 (protein, UniProt O82775 1-256)
chain: MANNEEHPPRGNEWEVVSLTSSAYAAAPGPYNVESRDVRKYDAYYGAETSRDLYMSEHFVFPPSEHENLPIDESLFVAEQRKDGRDLMLEGQGLSDQFHYEAGNNQQSIYGESALGSSRHMESFGSESAVYEHGLVDAEGNLDLHSDGEGEKDVKKSTHNLPCEAWWKRRAISMYSRTREANAIWSLFFAAAVTGLVVLGQRWQQERWQVLQLKWQSSISSEKLGRVLEPLSRLKDVIVRSNPQASLVRSGSSSEV
Turning to B1, the binding result was “binds weakly” in assay [1], “binds weakly” in assay [2], “binds” in assay [3] and “binds” in assay [4].
